Measured values as given in the supplement of paper PMC7661543.
Differences between knockout arms are mostly noise.

How the values were obtained:
Test in all cases: relative cell number vs DMSO control (72 h) (% of DMSO); higher = less growth inhibition (more cells)
MDA-MB-231 = tested on: MDA-MB-231
Method: (§1)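 QMAP-Seq: a pool of 5 breast cancer cell lines (ZR-75-1, SKBR3, HCC-38, MDA-MB-231, BT-20), each carrying 12 doxycycline-inducible Cas9 sgRNA perturbations (11 knockouts plus non-targeting sgNT), was treated with compounds for 72 h at four 10-fold doses (10 nM-10 uM or 1 nM-1 uM range). Barcodes were amplified and sequenced, and cell number was interpolated from 293T spike-in standard curves. The result is expressed as % of the median of DMSO wells. Two biological replicates.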

ZR-75-1 = tested on: ZR-75-1
Method: as §1

SKBR3 = tested on: SKBR3
Method: as §1

COC(=O)[C@]12CCC(C)(C)C[C@H]1[C@H]1C(=O)C=C3[C@@]4(C)C=C(C#N)C(=O)C(C)(C)[C@@H]4CC[C@@]3(C)[C@]1(C)CC2 [BardoxoloneMethyl]
relative cell number
Details	MDA-MB-231	SKBR3	ZR-75-1
sgRNA knockout: sgATF3, 10 nM	103	81.4	105
sgRNA knockout: sgATF3, 100 nM	106	64.7	53.5
sgRNA knockout: sgATF3, 1000 nM	12.2	8.84	14.9
sgRNA knockout: sgATF3, 10000 nM	7.87	5.51	3.07
sgRNA knockout: sgATF4, 10 nM	102	89.4	70.6
sgRNA knockout: sgATF4, 100 nM	76.9	70.8	58.3
sgRNA knockout: sgATF4, 1000 nM	14.3	10.8	21.3
sgRNA knockout: sgATF4, 10000 nM	7.56	4.49	4.15
sgRNA knockout: sgATF6, 10 nM	121	75.5	101
sgRNA knockout: sgATF6, 100 nM	93.2	60.3	46.1
sgRNA knockout: sgATF6, 1000 nM	11.6	10.6	17.3
sgRNA knockout: sgATF6, 10000 nM	4.71	5.87	3.98
sgRNA knockout: sgATG7, 10 nM	95.1	98.4	81.37
sgRNA knockout: sgATG7, 100 nM	90.3	63.3	37.1
sgRNA knockout: sgATG7, 1000 nM	16	17.8	21
sgRNA knockout: sgATG7, 10000 nM	5.49	5.53	2.82
sgRNA knockout: sgERN1, 10 nM	92.1	92.8	102
sgRNA knockout: sgERN1, 100 nM	85.9	56.8	56.7
sgRNA knockout: sgERN1, 1000 nM	12.2	12.2	12.3
sgRNA knockout: sgERN1, 10000 nM	6.47	6.771	7.77
sgRNA knockout: sgHSF1, 10 nM	123	81.29	–
sgRNA knockout: sgHSF1, 100 nM	79.1	59	–
sgRNA knockout: sgHSF1, 1000 nM	9.77	13.9	–
sgRNA knockout: sgHSF1, 10000 nM	4.5	7.43	–
sgRNA knockout: sgHSF2, 10 nM	120	94.8	100
sgRNA knockout: sgHSF2, 100 nM	87.7	55.5	52.5
sgRNA knockout: sgHSF2, 1000 nM	9.93	12.9	15
sgRNA knockout: sgHSF2, 10000 nM	6.17	4.99	3.36
sgRNA knockout: sgKEAP1, 10 nM	95.4	86.8	–
sgRNA knockout: sgKEAP1, 100 nM	93.5	78.4	–
sgRNA knockout: sgKEAP1, 1000 nM	12.7	11.7	–
sgRNA knockout: sgKEAP1, 10000 nM	6.14	4.35	–
sgRNA knockout: sgNFE2L2, 10 nM	91.8	81.5	78.1
sgRNA knockout: sgNFE2L2, 100 nM	75.5	66.6	40.4
sgRNA knockout: sgNFE2L2, 1000 nM	15.8	11.8	15.9
sgRNA knockout: sgNFE2L2, 10000 nM	4.18	6.04	7.75
sgRNA knockout: sgSLC35F2, 10 nM	106	105	84.4
sgRNA knockout: sgSLC35F2, 100 nM	108	66.7	46.9
sgRNA knockout: sgSLC35F2, 1000 nM	15.2	15.8	19
sgRNA knockout: sgSLC35F2, 10000 nM	8.56	3.91	4.05
sgRNA knockout: sgXBP1, 10 nM	93	98.2	82.5
sgRNA knockout: sgXBP1, 100 nM	96.4	54.7	45.2
sgRNA knockout: sgXBP1, 1000 nM	14.7	15.9	14.4
sgRNA knockout: sgXBP1, 10000 nM	4.61	5.49	6.09

Cc1ccc2c(c1)C(=O)C1(O)CCN(c3ccccc3)C1=N2 (stereo not drawn) [Blebbistatin]
relative cell number
Details	MDA-MB-231	SKBR3	ZR-75-1
sgRNA knockout: sgATF3, 10 nM	129	146	140
sgRNA knockout: sgATF3, 100 nM	124.4	145	148
sgRNA knockout: sgATF3, 1000 nM	122	141	139
sgRNA knockout: sgATF3, 10000 nM	97.8	100	94.4
sgRNA knockout: sgATF4, 10 nM	152	114.7	129
sgRNA knockout: sgATF4, 100 nM	148	144	137
sgRNA knockout: sgATF4, 1000 nM	147	107	170
sgRNA knockout: sgATF4, 10000 nM	87.6	100.7	112
sgRNA knockout: sgATF6, 10 nM	91.7	113	84.8
sgRNA knockout: sgATF6, 100 nM	102	119	107
sgRNA knockout: sgATF6, 1000 nM	136	133	103.9
sgRNA knockout: sgATF6, 10000 nM	79.3	111	129
sgRNA knockout: sgATG7, 10 nM	119	113	106
sgRNA knockout: sgATG7, 100 nM	112	144	113
sgRNA knockout: sgATG7, 1000 nM	118	154	134
sgRNA knockout: sgATG7, 10000 nM	72.5	126	68
sgRNA knockout: sgERN1, 10 nM	124	122	151
sgRNA knockout: sgERN1, 100 nM	116	109	126
sgRNA knockout: sgERN1, 1000 nM	110	139	113
sgRNA knockout: sgERN1, 10000 nM	84	113	80.9
sgRNA knockout: sgHSF1, 10 nM	119.6	142	–
sgRNA knockout: sgHSF1, 100 nM	102	113	–
sgRNA knockout: sgHSF1, 1000 nM	93.2	125	–
sgRNA knockout: sgHSF1, 10000 nM	64.27	84.3	–
sgRNA knockout: sgHSF2, 10 nM	115	109	130
sgRNA knockout: sgHSF2, 100 nM	140	128	111
sgRNA knockout: sgHSF2, 1000 nM	109	127	126
sgRNA knockout: sgHSF2, 10000 nM	84.7	102	89.5
sgRNA knockout: sgKEAP1, 10 nM	105	113	–
sgRNA knockout: sgKEAP1, 100 nM	130	114	–
sgRNA knockout: sgKEAP1, 1000 nM	98	113.83	–
sgRNA knockout: sgKEAP1, 10000 nM	103	108	–
sgRNA knockout: sgNFE2L2, 10 nM	115	126	112
sgRNA knockout: sgNFE2L2, 100 nM	118.5	129	140
sgRNA knockout: sgNFE2L2, 1000 nM	114	144	141
sgRNA knockout: sgNFE2L2, 10000 nM	82.7	102	140
sgRNA knockout: sgSLC35F2, 10 nM	110	100	96.9
sgRNA knockout: sgSLC35F2, 100 nM	115	124	158
sgRNA knockout: sgSLC35F2, 1000 nM	101	125	202
sgRNA knockout: sgSLC35F2, 10000 nM	75.2	104	111
sgRNA knockout: sgXBP1, 10 nM	124	131	108
sgRNA knockout: sgXBP1, 100 nM	118	118	119
sgRNA knockout: sgXBP1, 1000 nM	123	144	121
sgRNA knockout: sgXBP1, 10000 nM	87.2	129	105
